Results deposited as PubChem BioAssay AID1159508 (Drosophila RNAi Screening Center, 2015)
This is a random part of 812 deposited reagents. In the full data, 18 (2.2%) are marked active. 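Calls include both increased and decreased ATP; roughly one in four reagents has no third replicate value.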 Unmarked entries are inactive. Not all columns of the deposit are shown. Reagent sequences are not shown. Not given: the amount of reagent.

Purpose: 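Viability reference data for a dsRNA library against RNA-binding protein genes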
Cells: Drosophila S2R+ cells
Knock-down reagent: long dsRNA against Drosophila genes
Timing: 5 days
Read-out: 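Total ATP per well measured by luciferase luminescence after 5 days, expressed as z-scores for each replicate and as their average across up to three replicates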
Scale: mean ATP z-score: higher = more total ATP luminescence
Rule for the call: In these data the active calls have mean ATP z-score at about -2 or lower, or at about 2 or higher
Calls: active = strong ATP change (up or down); inactive = no strong ATP change

mean ATP z-score, by gene knocked down and reagent
Ssrp (GeneID 37767): DRSC29959 1.01; DRSC33199 0.713
me31B (GeneID 34364): DRSC03569 0.451; DRSC38084 0.883
Isha (GeneID 37411): DRSC04456 -0.478; DRSC42678 -0.579
mEFTu2 (GeneID 35681): DRSC06163 -0.279; DRSC40411 -1
Smyd3 (GeneID 44554): DRSC26723 0.134; DRSC38965 2.52 (active)
CG2931 (GeneID 40673): DRSC12324 0.245; DRSC42691 0.668
sqd (GeneID 41666): DRSC29779 -0.977; DRSC32626 -0.225
hyd (GeneID 41181): DRSC34921 -0.353; DRSC38400 -1.01
D (GeneID 39570): DRSC25367 -0.448; DRSC40488 0.484
bru2 (GeneID 250811): DRSC32801 0.524; DRSC32802 -0.428
CR31054 (GeneID 12798280): DRSC22134 0.288
PNPase (GeneID 43710): DRSC14304 -0.297; DRSC36168 0.511
Rrp46 (GeneID 41270): DRSC15537 0.364; DRSC42696 -0.799
Cnot4 (GeneID 34416): DRSC02830 -0.545; DRSC02831 0.00372
SF2 (GeneID 53443): DRSC16845 0.597; DRSC32605 0.173
CG3335 (GeneID 39119): DRSC10358 0.336; DRSC29982 -0.0691
NELF-B (GeneID 31681): DRSC17734 0.034; DRSC34513 0.288
Nop60B (GeneID 37873): DRSC04627 -0.972; DRSC38551 0.0861
bru1 (GeneID 34648): DRSC01237 0.0801; DRSC30638 -0.105
mxt (GeneID 33686): DRSC00551 1.11; DRSC25001 -0.223
Pep (GeneID 45961): DRSC11252 2.38 (active); DRSC37986 -0.244

A stretch from the list above, as a working copy:
mean ATP z-score, by gene knocked down and reagent
mEFTu2 (GeneID 35681): DRSC40411 -1
Smyd3 (GeneID 44554): DRSC26723 0.134; DRSC38965 2.52 (active)
CG2931 (GeneID 40673): DRSC12324 0.245

More records follow:
mean ATP z-score, by gene knocked down and reagent
Rrp40 (GeneID 319033): DRSC00074 0.63; DRSC42054 0.581
dsx (GeneID 40940): DRSC26707 0.0135; DRSC40763 -0.716
CG14230 (GeneID 32984): DRSC19586 0.239; DRSC33986 0.143
Srp14 (GeneID 42436): DRSC15797 0.673; DRSC42702 0.843
CG6094 (GeneID 34446): DRSC22705 -1.02; DRSC29084 -0.914
mRF1 (GeneID 34720): DRSC02880 -0.329; DRSC29576 1.31
sbr (GeneID 43944): DRSC29803 -0.113; DRSC33351 -1.01
SmE (GeneID 34080): DRSC02680 0.177; DRSC31785 1.17
bsf (GeneID 35100): DRSC02035 -0.385; DRSC42668 -0.981
Imp (GeneID 32009): DRSC20255 0.111; DRSC35798 -0.267
DENR (GeneID 32679): DRSC20151 0.483; DRSC42656 -0.052
Neos (GeneID 38795): DRSC11235 0.0524; DRSC35885 -0.511
CG10384 (GeneID 37567): DRSC28924 -0.352; DRSC33566 0.622
SmB (GeneID 34426): DRSC31868 -0.384; DRSC31869 0.35
Pcf11 (GeneID 36658): DRSC23350 0.577; DRSC34272 1.71
eRF3 (GeneID 34658): DRSC03322 2.38 (active); DRSC32120 0.225
Rnp4F (GeneID 31448): DRSC18706 -0.26; DRSC26480 -0.59
shep (GeneID 38605): DRSC09771 -0.914; DRSC34239 0.946
